Measurements published in the supplement of paper PMC10849652.
This is one part of the list.

Sequences of proteins named here, by UniProt entry; tags and fusion partners are left off. A change or cut given only in a name is not applied to a line headed by its entry.
UniProt Q15388, whole entry, looked up: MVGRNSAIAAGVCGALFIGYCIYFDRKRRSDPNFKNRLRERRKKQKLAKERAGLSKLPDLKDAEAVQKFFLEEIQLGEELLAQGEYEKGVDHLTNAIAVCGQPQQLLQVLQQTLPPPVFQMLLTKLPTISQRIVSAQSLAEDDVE
UniProt Q9Y3Q8: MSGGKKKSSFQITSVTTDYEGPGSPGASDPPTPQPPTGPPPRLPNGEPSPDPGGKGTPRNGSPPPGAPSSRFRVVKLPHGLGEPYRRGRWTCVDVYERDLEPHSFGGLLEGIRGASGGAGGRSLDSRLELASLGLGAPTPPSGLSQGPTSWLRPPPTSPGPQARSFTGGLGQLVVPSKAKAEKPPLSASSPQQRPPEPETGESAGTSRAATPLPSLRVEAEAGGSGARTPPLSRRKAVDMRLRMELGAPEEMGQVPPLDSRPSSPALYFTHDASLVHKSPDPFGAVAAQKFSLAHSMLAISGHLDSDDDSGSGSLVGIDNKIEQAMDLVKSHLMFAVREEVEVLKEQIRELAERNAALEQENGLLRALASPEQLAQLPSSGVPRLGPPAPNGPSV
UniProt O95985: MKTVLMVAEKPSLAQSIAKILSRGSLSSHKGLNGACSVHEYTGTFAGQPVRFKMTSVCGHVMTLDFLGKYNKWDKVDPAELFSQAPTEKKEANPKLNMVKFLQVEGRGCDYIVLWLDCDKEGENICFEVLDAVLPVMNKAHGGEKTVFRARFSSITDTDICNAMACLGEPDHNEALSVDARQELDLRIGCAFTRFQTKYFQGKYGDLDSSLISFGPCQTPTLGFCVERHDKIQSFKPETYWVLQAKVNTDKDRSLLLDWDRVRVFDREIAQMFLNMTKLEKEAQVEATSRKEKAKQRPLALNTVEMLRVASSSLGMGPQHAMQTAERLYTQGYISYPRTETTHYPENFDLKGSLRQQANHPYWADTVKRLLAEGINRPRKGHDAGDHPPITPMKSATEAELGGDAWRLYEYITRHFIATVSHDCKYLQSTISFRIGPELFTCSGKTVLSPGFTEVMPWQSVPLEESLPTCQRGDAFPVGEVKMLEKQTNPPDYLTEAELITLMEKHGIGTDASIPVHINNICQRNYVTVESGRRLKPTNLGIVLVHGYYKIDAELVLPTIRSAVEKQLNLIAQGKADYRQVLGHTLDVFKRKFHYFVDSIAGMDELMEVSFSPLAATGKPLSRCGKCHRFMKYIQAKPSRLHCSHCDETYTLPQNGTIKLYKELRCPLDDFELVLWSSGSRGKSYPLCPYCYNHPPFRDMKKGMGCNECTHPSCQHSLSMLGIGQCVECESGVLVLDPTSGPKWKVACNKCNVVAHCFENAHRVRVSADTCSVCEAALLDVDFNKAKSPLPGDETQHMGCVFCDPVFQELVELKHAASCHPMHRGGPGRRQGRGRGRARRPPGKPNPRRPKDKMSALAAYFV
UniProt Q9Y2L5: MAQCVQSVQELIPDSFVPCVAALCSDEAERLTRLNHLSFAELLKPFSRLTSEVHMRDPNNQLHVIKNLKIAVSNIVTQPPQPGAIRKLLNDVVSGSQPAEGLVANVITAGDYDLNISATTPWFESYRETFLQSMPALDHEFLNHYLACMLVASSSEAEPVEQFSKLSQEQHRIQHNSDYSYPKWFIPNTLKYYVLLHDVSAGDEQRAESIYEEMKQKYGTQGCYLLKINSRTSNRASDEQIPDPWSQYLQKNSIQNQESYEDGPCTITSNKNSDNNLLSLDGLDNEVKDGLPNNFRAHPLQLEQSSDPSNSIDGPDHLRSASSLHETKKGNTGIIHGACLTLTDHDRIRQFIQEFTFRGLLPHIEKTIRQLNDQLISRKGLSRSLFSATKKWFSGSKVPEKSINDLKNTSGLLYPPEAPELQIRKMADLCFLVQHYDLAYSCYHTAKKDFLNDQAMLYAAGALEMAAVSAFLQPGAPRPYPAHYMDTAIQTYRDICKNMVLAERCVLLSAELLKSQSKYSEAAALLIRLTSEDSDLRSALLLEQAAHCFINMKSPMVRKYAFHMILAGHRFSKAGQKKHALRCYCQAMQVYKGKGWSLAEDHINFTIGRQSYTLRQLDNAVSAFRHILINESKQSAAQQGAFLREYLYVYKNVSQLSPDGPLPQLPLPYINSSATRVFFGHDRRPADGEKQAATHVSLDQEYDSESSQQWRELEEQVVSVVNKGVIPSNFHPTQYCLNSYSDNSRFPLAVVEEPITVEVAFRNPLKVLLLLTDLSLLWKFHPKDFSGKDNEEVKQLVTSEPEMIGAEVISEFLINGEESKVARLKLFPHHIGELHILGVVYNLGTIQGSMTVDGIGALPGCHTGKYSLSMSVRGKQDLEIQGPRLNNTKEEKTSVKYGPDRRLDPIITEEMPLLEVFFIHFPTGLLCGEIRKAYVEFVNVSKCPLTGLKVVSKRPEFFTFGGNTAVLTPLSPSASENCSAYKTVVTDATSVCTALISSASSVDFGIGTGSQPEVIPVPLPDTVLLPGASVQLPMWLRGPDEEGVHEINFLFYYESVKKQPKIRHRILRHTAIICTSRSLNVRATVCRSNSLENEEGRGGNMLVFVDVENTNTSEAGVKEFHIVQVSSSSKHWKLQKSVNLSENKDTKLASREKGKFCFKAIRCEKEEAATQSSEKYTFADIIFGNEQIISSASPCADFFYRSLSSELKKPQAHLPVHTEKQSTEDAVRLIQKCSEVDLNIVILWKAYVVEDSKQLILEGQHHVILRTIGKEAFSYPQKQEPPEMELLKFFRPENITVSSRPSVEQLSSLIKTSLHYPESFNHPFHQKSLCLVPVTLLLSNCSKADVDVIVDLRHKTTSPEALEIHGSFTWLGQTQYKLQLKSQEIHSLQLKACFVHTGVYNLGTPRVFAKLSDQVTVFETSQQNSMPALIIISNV
UniProt Q5JU69: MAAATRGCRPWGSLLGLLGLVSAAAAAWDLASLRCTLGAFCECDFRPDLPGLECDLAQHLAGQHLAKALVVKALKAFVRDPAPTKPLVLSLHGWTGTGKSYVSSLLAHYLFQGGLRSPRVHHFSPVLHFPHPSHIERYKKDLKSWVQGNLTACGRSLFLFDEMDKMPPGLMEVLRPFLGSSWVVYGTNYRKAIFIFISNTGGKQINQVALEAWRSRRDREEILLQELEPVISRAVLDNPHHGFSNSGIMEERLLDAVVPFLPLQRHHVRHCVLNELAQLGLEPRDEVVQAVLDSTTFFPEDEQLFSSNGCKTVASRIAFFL
UniProt Q96S44: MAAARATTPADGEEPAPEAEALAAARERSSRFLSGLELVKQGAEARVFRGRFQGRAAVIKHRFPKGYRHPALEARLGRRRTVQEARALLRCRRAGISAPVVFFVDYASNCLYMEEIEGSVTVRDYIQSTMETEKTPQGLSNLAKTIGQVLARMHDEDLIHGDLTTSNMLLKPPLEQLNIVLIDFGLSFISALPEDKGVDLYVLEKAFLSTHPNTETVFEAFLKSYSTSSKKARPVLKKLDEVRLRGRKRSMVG
UniProt Q8NFQ8: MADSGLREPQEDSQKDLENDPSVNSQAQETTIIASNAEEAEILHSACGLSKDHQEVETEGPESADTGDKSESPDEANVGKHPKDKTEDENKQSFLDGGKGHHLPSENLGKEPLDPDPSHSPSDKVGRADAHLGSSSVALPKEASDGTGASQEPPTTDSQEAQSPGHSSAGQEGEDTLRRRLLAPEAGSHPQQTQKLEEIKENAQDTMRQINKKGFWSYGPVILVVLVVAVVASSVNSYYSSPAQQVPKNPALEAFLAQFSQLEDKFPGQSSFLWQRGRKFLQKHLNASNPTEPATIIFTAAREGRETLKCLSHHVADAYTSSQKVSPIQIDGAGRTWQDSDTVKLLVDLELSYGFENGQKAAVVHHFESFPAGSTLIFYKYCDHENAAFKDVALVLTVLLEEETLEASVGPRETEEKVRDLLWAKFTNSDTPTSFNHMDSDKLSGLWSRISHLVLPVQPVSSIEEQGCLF
UniProt Q96F44: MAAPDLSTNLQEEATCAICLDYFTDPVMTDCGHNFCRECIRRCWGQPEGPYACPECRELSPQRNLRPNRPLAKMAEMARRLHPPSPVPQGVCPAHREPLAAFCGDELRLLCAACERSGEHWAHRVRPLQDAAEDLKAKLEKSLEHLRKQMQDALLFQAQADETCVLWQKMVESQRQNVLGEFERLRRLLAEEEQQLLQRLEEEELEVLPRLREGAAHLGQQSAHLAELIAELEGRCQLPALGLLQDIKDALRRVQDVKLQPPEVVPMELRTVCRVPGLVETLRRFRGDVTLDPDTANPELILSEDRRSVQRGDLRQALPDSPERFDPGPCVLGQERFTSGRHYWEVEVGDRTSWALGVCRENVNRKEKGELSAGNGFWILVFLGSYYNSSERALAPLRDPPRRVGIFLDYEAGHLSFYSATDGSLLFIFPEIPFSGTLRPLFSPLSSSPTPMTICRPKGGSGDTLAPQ
UniProt P09493, whole entry, looked up: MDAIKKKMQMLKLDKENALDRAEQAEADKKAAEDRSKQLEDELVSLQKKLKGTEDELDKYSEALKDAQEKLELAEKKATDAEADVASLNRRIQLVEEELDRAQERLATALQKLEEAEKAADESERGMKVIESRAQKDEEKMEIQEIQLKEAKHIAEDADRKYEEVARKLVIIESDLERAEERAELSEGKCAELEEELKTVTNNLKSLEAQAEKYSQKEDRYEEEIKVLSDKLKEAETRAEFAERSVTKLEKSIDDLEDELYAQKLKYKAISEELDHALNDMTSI
UniProt Q15785: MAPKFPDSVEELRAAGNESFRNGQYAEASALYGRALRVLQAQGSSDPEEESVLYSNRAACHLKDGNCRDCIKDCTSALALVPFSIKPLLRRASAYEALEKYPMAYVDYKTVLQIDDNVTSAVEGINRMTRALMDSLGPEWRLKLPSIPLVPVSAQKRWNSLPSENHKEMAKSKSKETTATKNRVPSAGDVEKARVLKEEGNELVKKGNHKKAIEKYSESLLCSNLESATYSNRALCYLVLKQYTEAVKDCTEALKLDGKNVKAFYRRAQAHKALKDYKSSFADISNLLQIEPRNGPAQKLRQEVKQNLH
UniProt Q7Z392: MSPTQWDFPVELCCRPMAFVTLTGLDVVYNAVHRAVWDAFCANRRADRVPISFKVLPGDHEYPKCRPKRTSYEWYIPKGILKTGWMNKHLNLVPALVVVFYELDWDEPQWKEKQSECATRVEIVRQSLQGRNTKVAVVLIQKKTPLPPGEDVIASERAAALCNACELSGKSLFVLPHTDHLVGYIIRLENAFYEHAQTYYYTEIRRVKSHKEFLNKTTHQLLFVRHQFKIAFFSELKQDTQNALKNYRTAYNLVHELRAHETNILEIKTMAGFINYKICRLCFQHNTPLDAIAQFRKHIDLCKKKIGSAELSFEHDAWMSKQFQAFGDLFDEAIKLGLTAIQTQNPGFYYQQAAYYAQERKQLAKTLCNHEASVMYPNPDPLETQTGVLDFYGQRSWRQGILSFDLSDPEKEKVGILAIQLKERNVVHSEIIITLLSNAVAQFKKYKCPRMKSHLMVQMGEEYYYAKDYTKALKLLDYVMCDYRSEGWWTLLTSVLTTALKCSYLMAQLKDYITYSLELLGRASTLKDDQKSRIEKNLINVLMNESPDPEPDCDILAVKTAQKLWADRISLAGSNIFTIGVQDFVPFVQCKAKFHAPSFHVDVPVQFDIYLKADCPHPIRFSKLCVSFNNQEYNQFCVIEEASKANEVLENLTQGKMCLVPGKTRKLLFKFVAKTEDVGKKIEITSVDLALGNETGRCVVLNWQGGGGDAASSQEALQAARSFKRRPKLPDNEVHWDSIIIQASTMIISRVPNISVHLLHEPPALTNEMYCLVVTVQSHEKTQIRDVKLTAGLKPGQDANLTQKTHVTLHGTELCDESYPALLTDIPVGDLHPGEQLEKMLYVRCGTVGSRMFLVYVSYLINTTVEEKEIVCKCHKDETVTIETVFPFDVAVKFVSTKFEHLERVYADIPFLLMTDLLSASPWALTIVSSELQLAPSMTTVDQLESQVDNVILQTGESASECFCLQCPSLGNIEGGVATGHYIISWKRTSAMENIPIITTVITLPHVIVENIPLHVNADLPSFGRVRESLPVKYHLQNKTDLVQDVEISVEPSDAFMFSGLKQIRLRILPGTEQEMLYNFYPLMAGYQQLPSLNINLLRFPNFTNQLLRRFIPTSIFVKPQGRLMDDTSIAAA
UniProt Q969M1: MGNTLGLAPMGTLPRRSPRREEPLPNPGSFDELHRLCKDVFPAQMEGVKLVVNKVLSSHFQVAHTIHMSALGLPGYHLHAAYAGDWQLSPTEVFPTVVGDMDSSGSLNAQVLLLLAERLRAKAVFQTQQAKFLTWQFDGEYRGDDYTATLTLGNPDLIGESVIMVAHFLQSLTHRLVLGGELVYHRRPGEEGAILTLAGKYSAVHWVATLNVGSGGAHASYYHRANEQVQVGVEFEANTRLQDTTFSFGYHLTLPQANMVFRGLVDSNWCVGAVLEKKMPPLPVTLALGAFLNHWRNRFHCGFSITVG
UniProt Q8WW01: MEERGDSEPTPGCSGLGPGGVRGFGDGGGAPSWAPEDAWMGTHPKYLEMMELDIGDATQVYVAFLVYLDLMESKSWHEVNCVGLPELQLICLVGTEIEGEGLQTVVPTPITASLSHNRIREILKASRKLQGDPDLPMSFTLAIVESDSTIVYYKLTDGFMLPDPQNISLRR

Compound: CCCS(=O)(=O)Nc1ccc(F)c(C(=O)c2c[nH]c3ncc(Cl)cc23)c1F
Test: log2 fold change, soluble protein after heating vs DMSO (PISA); higher = thermal stabilisation; K562 cells, 10 uM, 30 min; active = over 0.2 and 3.5 SD of the protein, either way, in both replicates (recomputed)
Procedure, shortened: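 Soluble protein was quantified by TMTpro 16plex LC-MS/MS after channel sums were equalised. It was obtained as the supernatant after 21,000xg for 90 min from pooled aliquots of K562 cells (2×10^6 cells/mL, 10 μM compound, 30 min) heated for 3 min across 48°C-58°C and extracted in PBS with 0.5% NP-40 at 4°C. Thermal stability values are relative to control samples and come from duplicates. They are given as log2 fold changes.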

log2 fold change, inactive:
TOMM20 (UniProt Q15388) 0.092
TSEN34 (UniProt Q9BSV6) 0.028
TSC22D4 (UniProt Q9Y3Q8) 0.003
TOP1 (UniProt P11387) 0.092
TRIP13 (UniProt Q15645) 0.04
TOP3B (UniProt O95985) -0.051
TRIM4 (UniProt Q9C037) -0.041
TPM3 isoform 4 (UniProt P06753) -0.086
TPP2 (UniProt P29144) -0.034
TOMM40 (UniProt O96008) 0.008
TRAPPC8 (UniProt Q9Y2L5) 0.066
TOR2A (UniProt Q5JU69) -0.022
TRIAP1 (UniProt O43715) -0.362
TRIP11 (UniProt Q15643) 0.072
TRIP6 (UniProt Q15654) 0.013
TP53RK (UniProt Q96S44) 0.009
TOR1AIP2 (UniProt Q8NFQ8) -0.027
TOE1 (UniProt Q96GM8) 0.048
TPM4, A0A2R8Y5V9 -0.115
TRIM11 (UniProt Q96F44) -0.01
TRMT6 (UniProt Q9UJA5) -0.051
TOM1 isoform 2 (UniProt O60784) 0.041
TP53I3 (UniProt Q53FA7) -0.026
TPP2 (UniProt Q5VZU9) -0.152
TRNT1 (UniProt Q96Q11) 0.061
TPM1 isoform 4 (UniProt P09493) -0.004
TOMM34 (UniProt Q15785) 0.055
TPM2 (UniProt P07951) 0.001
TRAPPC11 (UniProt Q7Z392) 0.025
TOMM40L (UniProt Q969M1) -0.02
TOP2A isoform 4 (UniProt P11388) 0.042
TPM1 (UniProt H7BYY1) -0.024
TSEN15 (UniProt Q8WW01) 0.047

Reprinted at random: 2 entries already listed
log2 fold change, inactive:
TRNT1 (UniProt Q96Q11) 0.061
TOMM40L (UniProt Q969M1) -0.02
